According to patent US20030166513 (published 2003):

Experiment: general procedure: solution-phase peptide synthesis
Details: conjugation step, based on the drug compound A, trifluoroacetate

H-Gly-Gly-Phe-Gly-drug compound A gave a conjugation yield of 90%.
